Here are results for two molecules from publication PMC11233663, “ZBP1 condensate formation synergizes Z-NAs recognition and signal transduction” (Cell Death & Disease, 2024).

By UniProt entry, the sequences of proteins in these tests, tags left out. Residues count along the entry.
UniProt Q13546, residues 496-583: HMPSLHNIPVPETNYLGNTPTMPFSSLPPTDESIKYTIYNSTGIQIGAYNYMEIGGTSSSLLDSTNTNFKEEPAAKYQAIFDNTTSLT
UniProt Q9Y572: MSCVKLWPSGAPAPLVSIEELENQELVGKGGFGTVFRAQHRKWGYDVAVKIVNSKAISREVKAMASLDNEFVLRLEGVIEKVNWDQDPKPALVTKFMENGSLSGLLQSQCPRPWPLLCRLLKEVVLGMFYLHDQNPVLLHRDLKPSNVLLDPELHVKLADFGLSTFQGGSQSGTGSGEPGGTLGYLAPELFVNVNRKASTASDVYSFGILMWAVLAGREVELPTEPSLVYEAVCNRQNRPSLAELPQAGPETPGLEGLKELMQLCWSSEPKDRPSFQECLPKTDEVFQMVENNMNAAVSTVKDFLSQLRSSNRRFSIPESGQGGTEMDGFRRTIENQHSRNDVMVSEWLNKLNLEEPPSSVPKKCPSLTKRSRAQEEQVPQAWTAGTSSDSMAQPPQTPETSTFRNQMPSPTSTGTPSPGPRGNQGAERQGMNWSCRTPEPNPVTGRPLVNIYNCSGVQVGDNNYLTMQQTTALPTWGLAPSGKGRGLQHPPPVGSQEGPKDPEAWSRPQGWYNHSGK

Test [1] concerns the target T1, GFP-tagged wild-type full-length ZBP1 (human) (UniProt Q9H171).
T1 sequence: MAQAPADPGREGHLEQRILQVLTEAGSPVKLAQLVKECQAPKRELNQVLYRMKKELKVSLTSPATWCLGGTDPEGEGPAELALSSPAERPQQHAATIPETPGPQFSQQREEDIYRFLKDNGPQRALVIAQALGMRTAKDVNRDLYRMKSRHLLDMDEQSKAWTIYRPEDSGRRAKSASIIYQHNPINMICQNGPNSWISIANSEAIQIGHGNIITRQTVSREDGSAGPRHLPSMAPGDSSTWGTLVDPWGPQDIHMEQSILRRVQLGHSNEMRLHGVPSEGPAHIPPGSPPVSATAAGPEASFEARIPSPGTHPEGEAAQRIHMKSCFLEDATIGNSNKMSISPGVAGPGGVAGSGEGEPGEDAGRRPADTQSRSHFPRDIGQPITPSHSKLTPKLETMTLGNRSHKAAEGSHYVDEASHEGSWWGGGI
Description: co-IP; HT-29 cell lysates immunoprecipitated with an anti-GFP antibody, immunoblotted for RIP3. Background: A western blot detects proteins with antibodies after separation by electrophoresis.

Test [2] has as its target RIP1-RHIM (496-583) (UniProt Q13546). Description: Thioflavin T fluorescence (cross-seeding); 10 μM denatured RIP1-RHIM diluted into native SEC buffer, 20 μM ThT, ZBP1-RHIM1 + 2 seeds at 1, 2 and 3 μM, 25 °C; both purified.

These are yes or no findings as the source states them, for the method shown. For some assays here: Binding seen in cells or lysates may run through a third protein. Some results given as binding are weak or reduced against the parent protein; the word gives no strength. For some assays here: Sequences can lack the tags named with a protein.

Take “endogenous RIP3 (from UniProt Q9Y572 1-518)”: the binding entry in test [1] is on record as “binds”.

B1: ZBP1-RHIM 1 + 2 (residues 168-280) (domain or fragment, human, UniProt Q9H171 168-280, looked up)
chain: EDSGRRAKSASIIYQHNPINMICQNGPNSWISIANSEAIQIGHGNIITRQTVSREDGSAGPRHLPSMAPGDSSTWGTLVDPWGPQDIHMEQSILRRVQLGHSNEMRLHGVPSE
notes: the tag is inferred from the purification; also called RHIM 1 + 2 high-oligomer seed; source: E. coli BL21 Codonplus (DE3)-RIPL, purified (Ni-NTA, Superdex 200 10/300)
As to B1, the binding entry in test [2] is given as “binds”.
